No constants are given. Whether binding was seen depends on the method and setting. In cells and extracts the contact can be indirect.
Target: ROP38I with a C-terminal HA-FLAG epitope tag (Toxoplasma gondii (type I, RH strain)) (UniProt S8FZ79)
Test: co-IP; HA immunoprecipitation (magnetic beads) from lysates of tetracycline-induced TREX-293 GRA15II or ROP38I cells; immunoblot with TRAF2, TRAF3 and TRAF6 antibodies

Chains of the proteins cited; added tags and fusions are not shown.
UniProt Q9Y4K3: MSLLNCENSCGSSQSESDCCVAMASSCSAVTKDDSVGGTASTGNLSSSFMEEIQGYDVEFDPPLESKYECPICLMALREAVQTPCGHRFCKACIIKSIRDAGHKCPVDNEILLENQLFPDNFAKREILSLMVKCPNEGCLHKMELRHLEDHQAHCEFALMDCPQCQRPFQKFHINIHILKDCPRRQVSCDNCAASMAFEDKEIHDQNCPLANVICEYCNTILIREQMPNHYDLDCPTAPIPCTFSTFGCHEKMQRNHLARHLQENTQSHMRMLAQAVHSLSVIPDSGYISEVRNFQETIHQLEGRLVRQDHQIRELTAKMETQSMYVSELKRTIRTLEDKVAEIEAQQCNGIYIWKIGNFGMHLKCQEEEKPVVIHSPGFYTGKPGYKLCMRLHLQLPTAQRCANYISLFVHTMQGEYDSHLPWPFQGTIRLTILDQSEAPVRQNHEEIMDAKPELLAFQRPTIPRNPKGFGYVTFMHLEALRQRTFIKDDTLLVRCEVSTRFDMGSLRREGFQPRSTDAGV
UniProt Q13114: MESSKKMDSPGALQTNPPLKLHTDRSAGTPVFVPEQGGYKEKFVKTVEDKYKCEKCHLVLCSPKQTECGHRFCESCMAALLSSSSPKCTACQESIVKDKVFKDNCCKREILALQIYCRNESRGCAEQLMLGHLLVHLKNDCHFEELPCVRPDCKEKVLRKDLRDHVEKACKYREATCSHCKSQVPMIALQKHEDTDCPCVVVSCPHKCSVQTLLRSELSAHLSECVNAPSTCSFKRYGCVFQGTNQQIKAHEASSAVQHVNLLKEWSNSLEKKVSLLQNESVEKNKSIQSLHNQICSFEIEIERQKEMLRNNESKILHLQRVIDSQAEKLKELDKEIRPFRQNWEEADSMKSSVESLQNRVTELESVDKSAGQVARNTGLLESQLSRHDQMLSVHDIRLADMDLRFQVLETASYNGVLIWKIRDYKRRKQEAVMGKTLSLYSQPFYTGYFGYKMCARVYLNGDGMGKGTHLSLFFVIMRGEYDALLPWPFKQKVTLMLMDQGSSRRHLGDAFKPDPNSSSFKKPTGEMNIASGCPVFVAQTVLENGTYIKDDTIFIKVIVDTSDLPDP

## TNF receptor-associated factor 6 (TRAF6) (from UniProt Q9Y4K3 1-522)
  binding: no binding

## TNF receptor-associated factor 3 (TRAF3) (from UniProt Q13114 1-568)
  binding: no binding

— PMC6635525
